Taken from: PubChem BioAssay AID504774 (Drosophila RNAi Screening Center, 2011)
Purpose: 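Knock-downs that shift viability of MMS-exposed cells relative to untreated ones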 (primary screen). Cell system: Drosophila Kc167 cells. Reagent: long dsRNA against Drosophila genes, about 0.25 µg dsRNA per well. Time to read-out: about 6 days: 3 days knock-down, then 3 days with or without MMS. Treatment: methyl methanesulphonate 0.004% (w/v) for 3 days after knock-down. Detection: 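Viability in wells given MMS, read as ATP luminescence, normalised by quantiles plate by plate and averaged across replicates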. Direction: mean viability with MMS and viability with MMS: higher = more surviving cells after MMS.
In all, the deposit lists about 23,000 reagents; below is an unselected part of those that have a named target and a result. 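Values are quantile-normalised luminescence on an arbitrary scale; higher means more cells surviving MMS.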 Reagents against one gene are numbered here.

predicted target,reagent no.,mean viability with MMS,"viability with MMS, replicate 1","viability with MMS, replicate 2"
MsR1 (Myosuppressin receptor 1),1,3.49e6,4.03e6,3.89e6
CG17266,1,3.41e6,3.79e6,3.90e6
CG17266,2,3.44e6,3.87e6,3.98e6
CG13814 (retired record),1,3.54e6,4.04e6,3.98e6
CG17575,1,3.57e6,3.99e6,4.04e6
upd3 (unpaired 3),1,3.57e6,3.98e6,4.11e6
upd3 (unpaired 3),2,3.61e6,4.02e6,4.15e6
upd3 (unpaired 3),3,3.37e6,3.93e6,3.83e6
CG1631,1,3.50e6,3.98e6,3.97e6
MICU1 (Mitochondrial calcium uptake 1),1,3.52e6,3.89e6,4.09e6
CHES-1-like (Checkpoint suppressor 1-like),1,3.50e6,3.76e6,4.20e6
Pomp,1,2.59e6,3.32e6,2.49e6
CG13428,1,3.41e6,3.87e6,3.83e6
CG13671,1,3.70e6,4.11e6,4.27e6
ND-B14.5A (NADH dehydrogenase (ubiquinone) B14.5 A subunit),1,3.54e6,3.99e6,4.05e6
NO66 (Nucleolar protein 66),1,3.42e6,3.86e6,3.91e6
CG9837,1,3.51e6,4.02e6,3.95e6
rsh (radish),1,3.47e6,3.94e6,3.95e6
rsh (radish),2,2.83e6,3.60e6,3.60e6
TwdlM (TweedleM),1,3.64e6,3.94e6,4.29e6
Cpsf100 (Cleavage and polyadenylation specificity factor 100),1,3.49e6,3.92e6,4.02e6
CG10839,1,3.50e6,3.98e6,3.98e6
CG33966,1,3.55e6,4.02e6,4.02e6
mRpL16 (mitochondrial ribosomal protein L16),1,3.60e6,3.92e6,4.24e6
shakB (shaking B),1,3.57e6,4.02e6,4.07e6
shakB (shaking B),2,3.54e6,4.07e6,3.95e6
shakB (shaking B),3,3.53e6,4.08e6,3.95e6
CG10910,1,3.56e6,4.03e6,4.09e6
CG17855,1,3.49e6,3.91e6,4.00e6
scu (scully),1,3.58e6,4.15e6,3.97e6
CG3294,1,3.57e6,4.16e6,3.92e6
Marcal1,1,3.50e6,4.04e6,3.90e6
Prosbeta5 (Proteasome beta5 subunit),1,3.15e6,3.69e6,3.68e6
nwk (nervous wreck),1,3.38e6,3.93e6,3.71e6
Idgf2 (Imaginal disc growth factor 2),1,3.60e6,4.11e6,4.08e6
sicily (severe impairment of CI with lengthened youth),1,3.63e6,4.14e6,4.06e6
CG42324,1,3.49e6,3.95e6,3.98e6
CG42324,2,3.52e6,4.00e6,3.97e6
melt (melted),1,3.72e6,4.08e6,4.34e6
vlc (vulcan),1,3.50e6,4.03e6,3.89e6
ncm (nucampholin),1,3.08e6,3.27e6,3.69e6
CG9691,1,3.57e6,4.01e6,4.06e6
wech,1,3.09e6,2.15e6,3.74e6
Hrb87F (Heterogeneous nuclear ribonucleoprotein at 87F),1,3.40e6,3.84e6,3.84e6
CG13362,1,3.47e6,4.01e6,3.86e6
CG11231 (retired record),1,3.62e6,4.18e6,4.02e6
CG30419,1,3.52e6,4.03e6,3.96e6
CG30419,2,3.60e6,3.91e6,3.80e6
CG30419,3,3.48e6,3.93e6,4.01e6

8 entries already listed, arranged by “mean viability with MMS”, ascending:
predicted target,reagent no.,mean viability with MMS,"viability with MMS, replicate 1","viability with MMS, replicate 2"
upd3 (unpaired 3),3,3.37e6,3.93e6,3.83e6
CG17266,1,3.41e6,3.79e6,3.90e6
CG17266,2,3.44e6,3.87e6,3.98e6
CG1631,1,3.50e6,3.98e6,3.97e6
CG13814 (retired record),1,3.54e6,4.04e6,3.98e6
CG17575,1,3.57e6,3.99e6,4.04e6
upd3 (unpaired 3),1,3.57e6,3.98e6,4.11e6
upd3 (unpaired 3),2,3.61e6,4.02e6,4.15e6

Next results follow.
predicted target,reagent no.,mean viability with MMS,"viability with MMS, replicate 1","viability with MMS, replicate 2"
RNASEK (Ribonuclease kappa),1,3.49e6,3.98e6,3.96e6
CG42663,1,3.64e6,4.15e6,4.31e6
CG42663,2,3.59e6,3.79e6,3.90e6
px (plexus),1,2.79e6,3.42e6,2.60e6
px (plexus),2,2.74e6,2.42e6,3.60e6
wuho,1,3.60e6,4.03e6,4.13e6
WRNexo (WRN exonuclease),1,3.65e6,4.17e6,4.07e6
CCHa2-R (CCHamide-2 receptor),1,3.39e6,3.89e6,3.76e6
CCHa2-R (CCHamide-2 receptor),2,3.43e6,4.02e6,3.74e6
CCHa2-R (CCHamide-2 receptor),3,3.34e6,3.86e6,3.63e6
CG5323,1,3.70e6,4.18e6,4.16e6
CG30110,1,3.46e6,4.04e6,3.81e6
PGRP-SD (Peptidoglycan recognition protein SD),1,3.58e6,4.04e6,4.10e6
orion,1,3.79e6,4.37e6,4.26e6
orion,2,3.59e6,4.01e6,4.14e6
Dhc62B (Dynein heavy chain at 62B),1,3.52e6,3.99e6,3.98e6
Eaat1 (Excitatory amino acid transporter 1),1,3.70e6,4.12e6,4.27e6
mRpS18C (mitochondrial ribosomal protein S18C),1,3.70e6,4.14e6,4.21e6
CG13028,1,3.57e6,4.06e6,4.03e6
CG3117,1,3.38e6,3.75e6,3.85e6
LysRS (Lysyl-tRNA synthetase),1,3.50e6,3.66e6,4.13e6
Prosalpha7 (Proteasome alpha7 subunit),1,3.14e6,3.68e6,3.62e6
CG34320 (retired record),1,3.63e6,4.00e6,4.18e6
CG16896,1,3.27e6,2.97e6,3.85e6
TotF (Turandot F),1,3.48e6,3.88e6,3.99e6
CG42720 (retired record),1,3.59e6,3.99e6,4.11e6
CG13473,1,3.69e6,4.20e6,4.11e6
CG14565,1,3.79e6,4.22e6,4.24e6
CG6576,1,3.62e6,4.08e6,4.14e6
Ktl (Kctd12-like),1,3.62e6,4.10e6,4.09e6
CG17105,1,3.42e6,3.77e6,3.97e6
CG42656,1,3.44e6,3.79e6,4.03e6
CG13539,1,3.41e6,3.82e6,3.88e6
CG6094,1,3.53e6,3.85e6,4.16e6
CG6094,2,3.57e6,4.07e6,4.00e6
CG1265,1,3.47e6,3.82e6,4.06e6
Ag5r2 (Antigen 5-related 2),1,3.53e6,4.03e6,4.00e6
CG5280,1,3.48e6,3.92e6,3.98e6
CG5280,2,3.45e6,3.89e6,3.99e6
